No constants are given. Whether binding was seen depends on the method and setting. In cells and extracts the contact can be indirect. Some binding calls cover weakened binding; strength is not graded here.
Tests used:
[1] = target: T1, dermatopontin (DPT), exogenous (UniProt Q07507); test: co-IP; exogenous DPT and YAP; lysate incubated with primary antibody or IgG, protein A and protein G, 4 °C overnight; western blot
T1 sequence: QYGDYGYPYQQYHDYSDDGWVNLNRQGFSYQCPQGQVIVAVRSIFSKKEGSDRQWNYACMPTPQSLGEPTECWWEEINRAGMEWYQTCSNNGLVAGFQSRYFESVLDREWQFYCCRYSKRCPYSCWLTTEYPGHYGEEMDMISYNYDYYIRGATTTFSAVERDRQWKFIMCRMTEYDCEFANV

Amino acid sequences for entries named in this document (tags omitted).
UniProt P46937: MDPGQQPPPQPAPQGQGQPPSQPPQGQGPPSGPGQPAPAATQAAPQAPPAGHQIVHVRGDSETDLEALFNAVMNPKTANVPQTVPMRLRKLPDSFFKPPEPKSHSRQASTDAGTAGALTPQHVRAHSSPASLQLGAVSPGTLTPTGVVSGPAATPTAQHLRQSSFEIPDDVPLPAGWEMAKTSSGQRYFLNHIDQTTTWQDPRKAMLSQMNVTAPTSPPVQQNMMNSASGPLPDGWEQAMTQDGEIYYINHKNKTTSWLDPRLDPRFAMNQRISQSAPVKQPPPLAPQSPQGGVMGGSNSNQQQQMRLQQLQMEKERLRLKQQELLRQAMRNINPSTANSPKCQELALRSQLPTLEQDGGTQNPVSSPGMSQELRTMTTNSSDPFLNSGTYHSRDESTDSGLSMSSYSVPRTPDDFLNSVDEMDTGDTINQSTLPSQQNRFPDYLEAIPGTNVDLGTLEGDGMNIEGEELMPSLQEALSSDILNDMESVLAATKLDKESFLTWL

[2] = target: T2, dermatopontin (DPT), endogenous (human (endogenous in BT549 and MDA-MB-231)) (UniProt Q07507); test: co-IP; endogenous proteins in BT549 and MDA-MB-231 lysates; precipitation with Anti-YAP1 or Anti-DPT antibodies; western blot
T2 sequence: T1 sequence

Row | Substance | binding [1] | binding [2]
1 | Yes-associated protein (YAP), exogenous (from UniProt P46937 1-504) | binds | 
2 | Yes-associated protein (YAP), endogenous (from UniProt P46937 1-504) |  | binds
